Measurements published in US20080242608A1.
These are yes or no findings as the source states them, for the method shown. In cells and extracts the contact can be indirect. Some binding calls cover weakened binding; strength is not graded here.

Sequences of proteins named here, by UniProt entry; tags and fusion partners are left off.
UniProt O43524: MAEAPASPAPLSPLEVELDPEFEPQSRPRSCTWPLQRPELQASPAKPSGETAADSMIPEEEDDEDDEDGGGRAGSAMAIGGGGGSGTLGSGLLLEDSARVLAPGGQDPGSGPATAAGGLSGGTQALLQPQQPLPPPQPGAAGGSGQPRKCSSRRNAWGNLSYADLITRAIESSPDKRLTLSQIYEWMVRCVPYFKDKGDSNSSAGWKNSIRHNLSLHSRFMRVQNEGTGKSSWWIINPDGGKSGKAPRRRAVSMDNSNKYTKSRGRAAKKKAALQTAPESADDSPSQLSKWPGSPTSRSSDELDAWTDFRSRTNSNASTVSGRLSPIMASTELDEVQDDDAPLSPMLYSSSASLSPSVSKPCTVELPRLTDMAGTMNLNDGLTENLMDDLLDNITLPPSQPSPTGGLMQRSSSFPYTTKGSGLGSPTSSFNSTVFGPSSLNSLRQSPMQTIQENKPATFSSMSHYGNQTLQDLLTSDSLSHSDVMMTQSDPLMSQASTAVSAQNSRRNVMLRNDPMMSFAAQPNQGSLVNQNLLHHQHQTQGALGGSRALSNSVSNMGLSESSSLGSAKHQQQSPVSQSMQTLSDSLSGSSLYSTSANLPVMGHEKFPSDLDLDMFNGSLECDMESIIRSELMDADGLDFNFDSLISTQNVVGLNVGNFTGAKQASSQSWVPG
UniProt P31946: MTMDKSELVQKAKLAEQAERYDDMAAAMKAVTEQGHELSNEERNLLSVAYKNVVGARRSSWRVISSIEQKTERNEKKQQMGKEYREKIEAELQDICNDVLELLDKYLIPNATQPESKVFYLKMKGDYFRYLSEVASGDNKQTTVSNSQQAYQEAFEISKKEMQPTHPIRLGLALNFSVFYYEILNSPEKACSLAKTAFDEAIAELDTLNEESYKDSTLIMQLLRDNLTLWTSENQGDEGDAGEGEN

Biological target: GFP-FOXO3 (UniProt O43524)
Experiment: co-IP from 293T lysates with GFP antibody, 14-3-3β immunoblot

- binding: binds
Substance: 14-3-3β (endogenous, 293T cells) (from UniProt P31946 1-246)
